Measurements reported in PubChem BioAssay AID1259254 (NCATS, 2017)

Aim: 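Genome-wide screen for genes that prevent DNA re-replication in cancer cells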 (primary screen)
Cell system: human HCT116 colorectal cancer cells
Knock-down reagent: single siRNA against human genes
Duration: 3 days
Read-out: 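Imaged Hoechst DNA stain sorts each cell into a cycle phase by DNA amount; per plate, G2 fraction set to 0% for non-targeting and 100% for GMNN siRNA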
Scale: G2 robust z-score and G2 cells, % of GMNN control: higher = more G2 cells, more excess DNA replication
Active means: 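An siRNA counts as active if its G2 robust z-score lies at least 5 MADs above the screen median; here such calls match roughly 38% of GMNN control or more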
In all, the deposit lists about 59,000 reagents; this is a random part of them. Of all reagents, about 1,550 (2.6%) are marked active. 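G2 share is only a proxy for re-replication; each gene was hit by three separate siRNAs, and active genes were retested.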 Unmarked entries are inactive. The numbers tell different reagents against one gene apart. Further read-outs or replicates are left out here. Not given: the amount of reagent.

| Target gene | siRNA no. | G2 robust z-score | G2 cells, % of GMNN control |
| --- | --- | --- | --- |
| GLOD5 (glyoxalase domain containing 5) | 1 | -0.532 | -0.777 |
| GLOD5 (glyoxalase domain containing 5) | 2 | -0.501 | -0.559 |
| GLOD5 (glyoxalase domain containing 5) | 3 | -0.746 | -2.28 |
| LTB4R (leukotriene B4 receptor) | 1 | 0.281 | 4.94 |
| LTB4R (leukotriene B4 receptor) | 2 | -0.546 | -0.876 |
| LTB4R (leukotriene B4 receptor) | 3 | 0.393 | 5.73 |
| CENPO (centromere protein O) | 1 | -0.142 | 1.97 |
| CENPO (centromere protein O) | 2 | -0.0808 | 2.4 |
| CENPO (centromere protein O) | 3 | -0.719 | -2.09 |
| SPART-AS1 (SPART antisense RNA 1) | 1 | -0.0162 | 2.85 |
| SPART-AS1 (SPART antisense RNA 1) | 2 | 2.12 | 17.9 |
| SPART-AS1 (SPART antisense RNA 1) | 3 | -0.278 | 1.01 |
| TTC21A (tetratricopeptide repeat domain 21A) | 1 | 0.585 | 7.09 |
| TTC21A (tetratricopeptide repeat domain 21A) | 2 | -0.783 | -2.54 |
| TTC21A (tetratricopeptide repeat domain 21A) | 3 | -0.71 | -2.03 |
| LOC145845 | 1 | 1.19 | 11.3 |
| LOC145845 | 2 | 0.265 | 4.83 |
| LOC145845 | 3 | -0.564 | -1 |
| SPACA7 (sperm acrosome associated 7) | 1 | -0.134 | 2.03 |
| SPACA7 (sperm acrosome associated 7) | 2 | -1.02 | -4.18 |
| SPACA7 (sperm acrosome associated 7) | 3 | 0.0152 | 3.07 |
| MCMDC2 (minichromosome maintenance domain containing 2) | 1 | -0.467 | -0.318 |
| MCMDC2 (minichromosome maintenance domain containing 2) | 2 | -0.292 | 0.91 |
| MCMDC2 (minichromosome maintenance domain containing 2) | 3 | -1.02 | -4.23 |
| MBL2 (mannose binding lectin 2) | 1 | -0.309 | 0.794 |
| MBL2 (mannose binding lectin 2) | 2 | 0.243 | 4.68 |
| MBL2 (mannose binding lectin 2) | 3 | -0.171 | 1.76 |
| OR7C2 (olfactory receptor family 7 subfamily C member 2) | 1 | 0.732 | 8.12 |
| OR7C2 (olfactory receptor family 7 subfamily C member 2) | 2 | -0.348 | 0.516 |
| OR7C2 (olfactory receptor family 7 subfamily C member 2) | 3 | 0.328 | 5.27 |
| TMEM236 (transmembrane protein 236) | 1 | 0.203 | 4.39 |
| TMEM236 (transmembrane protein 236) | 2 | 0.0264 | 3.15 |
| TMEM236 (transmembrane protein 236) | 3 | -0.494 | -0.509 |
| CLRN3 (clarin 3) | 1 | 2.51 | 20.7 |
| CLRN3 (clarin 3) | 2 | -0.534 | -0.791 |
| CLRN3 (clarin 3) | 3 | -0.27 | 1.07 |
| ACTR5 (actin related protein 5) | 1 | 1.54 | 13.8 |
| ACTR5 (actin related protein 5) | 2 | -0.945 | -3.68 |
| ACTR5 (actin related protein 5) | 3 | 0.807 | 8.65 |
| LOC100288914 (mannosidase beta like pseudogene) | 1 | 0.221 | 4.52 |
| LOC100288914 (mannosidase beta like pseudogene) | 2 | 3.28 | 26 |
| LOC100288914 (mannosidase beta like pseudogene) | 3 | 1.24 | 11.7 |
| NAGPA | 1 | -0.656 | -1.65 |
| NAGPA | 2 | 2.23 | 18.7 |
| NAGPA | 3 | -1.02 | -4.23 |
| TCF4 (transcription factor 4) | 1 | 0.117 | 3.79 |
| TCF4 (transcription factor 4) | 2 | -1.27 | -5.93 |
| TCF4 (transcription factor 4) | 3 | -1.22 | -5.65 |
| WWTR1 (WW domain containing transcription regulator 1) | 1 | 0.354 | 5.46 |
| WWTR1 (WW domain containing transcription regulator 1) | 2 | 2.7 | 22 |
| WWTR1 (WW domain containing transcription regulator 1) | 3 | -0.254 | 1.18 |
| SEPTIN7P14 (septin 7 pseudogene 14) | 1 | 5.37 (active) | 40.8 |
| SEPTIN7P14 (septin 7 pseudogene 14) | 2 | 0.18 | 4.23 |
| SEPTIN7P14 (septin 7 pseudogene 14) | 3 | -0.223 | 1.4 |
| CACNA2D3 | 1 | -0.0742 | 2.45 |
| CACNA2D3 | 2 | 0.0245 | 3.14 |
| CACNA2D3 | 3 | -0.881 | -3.23 |
| SPRYD4 (SPRY domain containing 4) | 1 | -0.713 | -2.05 |
| SPRYD4 (SPRY domain containing 4) | 2 | -0.342 | 0.558 |
| SPRYD4 (SPRY domain containing 4) | 3 | -0.41 | 0.0854 |
| CCDC157 (coiled-coil domain containing 157) | 1 | 1.3 | 12.1 |
| CCDC157 (coiled-coil domain containing 157) | 2 | -0.382 | 0.283 |
| CCDC157 (coiled-coil domain containing 157) | 3 | 0.505 | 6.52 |
| BAGE4 (BAGE family member 4) | 1 | 1.12 | 10.9 |
| BAGE4 (BAGE family member 4) | 2 | 0.637 | 7.45 |
| BAGE4 (BAGE family member 4) | 3 | 0.382 | 5.65 |
| GPATCH8 (G-patch domain containing 8) | 1 | 0.914 | 9.4 |
| GPATCH8 (G-patch domain containing 8) | 2 | 2.67 | 21.8 |
| GPATCH8 (G-patch domain containing 8) | 3 | 2.11 | 17.8 |

Hits, among the entries above:
| Target gene | siRNA no. | G2 robust z-score | G2 cells, % of GMNN control |
| --- | --- | --- | --- |
| SEPTIN7P14 (septin 7 pseudogene 14) | 1 | 5.37 (active) | 40.8 |
